The chains behind the UniProt entries cited, without tags or fusion partners.
UniProt P09471, whole entry, looked up: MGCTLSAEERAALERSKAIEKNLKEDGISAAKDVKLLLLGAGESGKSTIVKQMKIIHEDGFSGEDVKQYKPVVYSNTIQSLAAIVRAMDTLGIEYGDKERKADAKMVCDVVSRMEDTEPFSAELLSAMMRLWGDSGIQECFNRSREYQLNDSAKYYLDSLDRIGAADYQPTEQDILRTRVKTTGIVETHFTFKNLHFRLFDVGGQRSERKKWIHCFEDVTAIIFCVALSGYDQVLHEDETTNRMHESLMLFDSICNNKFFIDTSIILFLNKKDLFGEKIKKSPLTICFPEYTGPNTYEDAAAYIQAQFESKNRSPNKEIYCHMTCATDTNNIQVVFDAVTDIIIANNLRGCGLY

In all, about 220,000 compounds went through this assay and about 770 (0.35%) were called active. The shares of active, inactive and inconclusive entries below differ from those in the screen. Cut-off read from the data, not from the text of the source: active = binding response below about 49% or above about 150%; inconclusive = no clear call, values can overlap the other calls; inactive = in between.
What follows are compounds tested against Guanine nucleotide-binding protein G(o) subunit alpha (Homo sapiens) (UniProt P09471) (assay: RGS7-Galphao binding modulators, primary screen, biochemical, multiplexed bead flow cytometry (AID 1439;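 note: fluorescent Galphao held in activated GDP-AlF4 state binding bead-coupled RGS7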)). Details: at 10 µM, actives lie on both sides.
`Cc1ccc(S(=O)(=O)NN/C(=N/S(=O)(=O)c2ccccc2)c2ccccc2)cc1` was tested, and the binding response (% of control) was inconclusive: 109%. For `NC(=O)/C(=C/c1cccnc1)NC(=O)c1ccccc1`, the binding response (% of control) was inconclusive: 116%. For `CCSc1nnc(-c2cc(Br)ccc2NC(C)=O)c(=O)[nH]1`, the binding response (% of control) was inconclusive: 112%. `COc1cc(C(=O)c2ccccc2)c([N+](=O)[O-])cc1OC` was tested, and the binding response (% of control) was inconclusive: 122%. In the case of `CC1=C(C#N)C(/C=N/OCc2ccc(F)cc2Cl)CC(=O)N1` (stereo not given), the binding response (% of control) is reported as inactive: 95.6%. In the case of `Cc1ccc(S(=O)(=O)[N-]c2nc3ccccc3nc2-n2cc[n+](Cc3ccccc3)c2)cc1`, the binding response (% of control) is reported as inconclusive: 142%. With `COc1ccccc1NC(=O)c1ccc(NC(=O)CSc2ncccn2)cc1` the binding response (% of control) was inconclusive: 79.3%. With `Cc1cccc2c1NC(=O)C21N2CCCC2C(C(=O)c2ccc3ccccc3c2)C12C(=O)Nc1ccccc12` (stereo not given) the binding response (% of control) was inconclusive: 135%. With `COc1ccc(/C=C/C(=O)c2ccc(O)cc2)cc1` the binding response (% of control) was inactive: 99%. For `COC(=O)c1ccc(C(C2C(=O)CC(C)(C)CC2=O)C2C(=O)CC(C)(C)CC2=O)cc1`, the binding response (% of control) was inconclusive: 126%. In the case of `O=C1NNC(c2ccccc2)=N/C1=C\c1ccc(Cl)cc1`, the binding response (% of control) is reported as inconclusive: 34.6%. `COc1ccc(S(=O)(=O)N2CCOCC2)cc1NC(=O)CSc1nnc2c(n1)[nH]c1ccccc12` was tested, and the binding response (% of control) was inconclusive: 121%. In the case of `O=C(N=NC(=O)c1ccc2c(O)n(CC3CCCO3)c(O)c2c1)c1cccnc1` (stereo not given), the binding response (% of control) is reported as inconclusive: -268%. With `C/C(=N\S(=O)(=O)c1ccc(C)cc1)NC(=S)Nc1ccc(C)cc1` the binding response (% of control) was inconclusive: 107%. `COc1cccc(C2CC(=O)C3=C(C2)Nc2ccccc2N(C(=O)CCC(=O)O)C3c2ccc(F)cc2)c1` (stereo not given) was tested, and the binding response (% of control) was inconclusive: 110%. `Cc1n[nH]c(=O)c2ccccc12` was tested, and the binding response (% of control) was inconclusive: 115%. In the case of `O=C(NCCc1ccc(F)cc1)c1cc(=O)c2ccccc2o1`, the binding response (% of control) is reported as inactive: 102%. With `O=C(Cc1ccccc1)Nc1cc([N+](=O)[O-])ccc1N1CCOCC1` the binding response (% of control) was inconclusive: 110%. With `Cc1ccc(C(C[N+](=O)[O-])Sc2ccc(N)cc2)cc1` (stereo not given) the binding response (% of control) was inconclusive: 185%. With `C=C1CN(Cc2ccccc2)S(=O)(=O)c2ccccc21` the binding response (% of control) was inconclusive: 83.7%. For `Cc1ccccc1/C=N/Nc1ncnc2nc[nH]c12`, the binding response (% of control) was inconclusive: 83.8%. For `Cc1onc(-c2c(Cl)cccc2Cl)c1C(=O)Nc1ccc(Cl)cn1`, the binding response (% of control) was inconclusive: 41.2%. With `Cc1ccc(OCC(=O)N2CCc3ccccc32)cc1` the binding response (% of control) was inactive: 96%. With `C=CCn1cnc2c(nnn2Cc2ccc(F)cc2)c1=O` the binding response (% of control) was inconclusive: 61.4%. `C=C1CCN([C@H](C(=O)NCc2cc(OC)c(OC)c(OC)c2)C(C)C)S(=O)(=O)c2ccccc21` was tested, and the binding response (% of control) was inconclusive: 84.2%. For `O=C(/C=C/c1ccco1)Nc1cccnc1Cl`, the binding response (% of control) was inconclusive: 51.3%. `COc1ccccc1NS(=O)(=O)CC12CCC(CC1=O)C2(C)C` (stereo not given) was tested, and the binding response (% of control) was inactive: 97.7%. For `COc1ccc(C(=O)/C=C/c2ccc(OC(=O)c3cc(OC)c(OC)c(OC)c3)cc2)cc1`, the binding response (% of control) was inactive: 129%. For `O=C(CSc1nnnn1Cc1ccccc1)c1ccc(F)cc1`, the binding response (% of control) was inconclusive: 123%. `COc1ccc(NC(=O)CSc2ccc3c4c(cccc24)C(=O)c2ccccc2-3)cc1` was tested, and the binding response (% of control) was inactive: 114%. In the case of `CN1CCN(NC(=O)c2cccs2)CC1`, the binding response (% of control) is reported as inconclusive: 95.4%. In the case of `CC1(C)CC(NC(=O)CSc2ccccc2)CC(C)(C)N1`, the binding response (% of control) is reported as inconclusive: 117%. `CCOC(=O)c1sc(NC(=O)CCN2CCC(C)CC2)c(C(=O)OCC)c1C` was tested, and the binding response (% of control) was inconclusive: 114%. `CC(NCc1ccccc1)c1ccccc1O` (stereo not given) was tested, and the binding response (% of control) was inconclusive: 144%. In the case of `CNC(=O)NC(=O)COC(=O)c1ccccc1OCc1ccccc1`, the binding response (% of control) is reported as inconclusive: 96%. With `Cc1c(/C=N/NC(=O)c2cc(C(C)(C)C)[nH]n2)c2ccccc2n1C` the binding response (% of control) was inconclusive: -117%. With `CCN1CCN(Cc2ccc(NC(=O)c3cc(NC(=O)c4cnn(-c5ccccc5)c4N)cc(OC)c3)cc2C(F)(F)F)CC1` the binding response (% of control) was inconclusive: 117%. In the case of `Cc1ccc(CONC(=O)c2ccccc2)cc1`, the binding response (% of control) is reported as inconclusive: 80.2%. With `CSc1c(-c2ccccn2)c(N)nn1C(=O)C1CCC1` the binding response (% of control) was inconclusive: -1.43%. For `O=C(CSc1nnc2scc(-c3ccccc3)n12)Nc1nsc(-c2ccccc2)n1`, the binding response (% of control) was inactive: 108%. With `O=C(CN1CCN(C(c2ccccc2)c2ccccc2)CC1)N1N=CCC1c1ccccc1` (stereo not given) the binding response (% of control) was inconclusive: 90%. In the case of `O=C(Nc1nnc(-c2ccc(Cl)cc2)o1)Nc1ccccc1F`, the binding response (% of control) is reported as inconclusive: 106%. For `COc1cc(CC(=O)NCC2COc3ccccc3O2)cc(OC)c1OC` (stereo not given), the binding response (% of control) was inconclusive: 76.8%. In the case of `Cc1ccc(S(=O)(=O)N(c2nc(NC(C)C)nc(NC(C)C)n2)n2cnnc2)cc1`, the binding response (% of control) is reported as inactive: 110%. For `Cc1cc(S(=O)(=O)NCc2ccccc2)ccc1OCC(=O)NCC1CCCO1` (stereo not given), the binding response (% of control) was inconclusive: 107%.

Reference: PubChem BioAssay AID1439 (NMMLSC, 2008)
